Data reported in patent US20170189504A1, “NOVEL PEPTIDES AND COMBINATION OF PEPTIDES FOR USE IN IMMUNOTHERAPY AGAINST VARIOUS CANCERS” (immatics biotechnologies GmbH, priority 2015, published 2017).
For some of these results: Expression values are those of the mRNA of the gene that encodes the peptide; a gene is named only where it was looked up.

Assays:
HLA-A*02 = test: Identification and relative LC-MS quantitation of HLA-A*02-presented tumor-associated peptides on tissue samples (presentation profiles, Tables 13A, 13B, 15, FIG. 1); parameters: species or system human; key to Presentation score NHL / Presentation score CLL / Presentation score BRCA / Presentation score AML / Presentation score GB / Presentation score NSCLC / Presentation score GBC_CCC / Presentation score UEC / Presentation score MEL / Presentation score OSCAR / Presentation score GC / Presentation score UBC / Presentation score OC / Presentation score RCC / Presentation score CRC / Presentation score PCA / Presentation score HCC / Presentation score PC / Presentation score SCLC: specifically presented on tumors (++++); very highly over-presented on tumors compared to a panel of normal tissues (+++); highly over-presented on tumors compared to a panel of normal tissues (++); over-presented on tumors compared to a panel of normal tissues (+); settings: for Peptide Presentation on cancer entities: HLA-A*02-binding tumor-associated peptides
source genes (mRNA) [1] = test: Gene and exon expression of source genes, TCGA tumor samples compared with normal tissue samples (Lonsdale, 2013) (Table 17); parameters: species or system human
source genes (mRNA) [2] = test: Expression profiling of source genes by in-house RNASeq of tumor and normal tissues (Table 18, FIG. 2); parameters: species or system human; key: very highly over-expressed in tumors compared to a panel of normal tissues (+++); highly over-expressed in tumors compared to a panel of normal tissues (++); over-expressed in tumors compared to a panel of normal tissues (+); settings: source gene of peptide

47: peptide found in NOC4L (gene looked up) (ALLERGELFV; listed as Homo sapiens) [compound 47]
Presentation score CLL (HLA-A*02; HLA-A*02 peptides, chronic lymphocytic leukemia (N = 17) vs panel of normal tissues (N = 262)): ++++
Presentation score NHL (HLA-A*02; HLA-A*02 peptides, non-Hodgkin lymphoma (N = 18) vs panel of normal tissues (N = 262)): ++++
Presentation score NSCLC (HLA-A*02; HLA-A*02 peptides, non-small cell lung cancer (N = 90) vs panel of normal tissues (N = 262)): ++++
Presentation score OC (HLA-A*02; HLA-A*02 peptides, ovarian cancer (N = 20) vs panel of normal tissues (N = 262)): ++++
Peptide Presentation on cancer entities (HLA-A*02; Table 13A, cancer entities on which the peptide was found presented): NSCLC, CLL, OC, NHL
Peptide Presentation on cancer entities (HLA-A*02; Table 13B, presentation on additional cancer entities): OSCAR, UBC, AML
Target coverage: over-expression category of source gene, LAML (source genes (mRNA) [1]; Acute Myeloid Leukemia (N = 173), cutoff more than 2-fold above highest 75% percentile of normal tissue samples): B (>= 20% of tumors above the cutoff, but <50%)
Target coverage: over-expression category of source gene, BLCA (source genes (mRNA) [1]; Bladder urothelial carcinoma (N = 408), cutoff more than 2-fold above highest 75% percentile of normal tissue samples): A (>=50% of tumors above the cutoff)
Target coverage: over-expression category of source gene, BRCA (source genes (mRNA) [1]; Breast cancer (N = 1104), cutoff more than 2-fold above highest 75% percentile of high and medium risk normal tissue samples): B (>= 20% of tumors above the cutoff, but <50%)
Target coverage: over-expression category of source gene, CHOL (source genes (mRNA) [1]; Cholangiocarcinoma (N = 36), cutoff more than 2-fold above highest 75% percentile of normal tissue samples): A (>=50% of tumors above the cutoff)
Target coverage: over-expression category of source gene, KIRC (source genes (mRNA) [1]; Clear cell kidney carcinoma (N = 534), cutoff more than 2-fold above highest 75% percentile of normal tissue samples): C (>=5% of tumors above the cutoff, but <20%)
Target coverage: over-expression category of source gene, READ (source genes (mRNA) [1]; Colon and rectal adenocarcinoma (N = 167), cutoff more than 2-fold above highest 75% percentile of normal tissue samples): A (>=50% of tumors above the cutoff)
Target coverage: over-expression category of source gene, COAD (source genes (mRNA) [1]; Colon and rectal adenocarcinoma (N = 462), cutoff more than 2-fold above highest 75% percentile of normal tissue samples): A (>=50% of tumors above the cutoff)
Target coverage: over-expression category of source gene, ESCA (source genes (mRNA) [1]; Esophageal cancer (N = 185), cutoff more than 2-fold above highest 75% percentile of normal tissue samples): A (>=50% of tumors above the cutoff)
Target coverage: over-expression category of source gene, GBM (source genes (mRNA) [1]; Glioblastoma multiforme (N = 169), cutoff more than 2-fold above highest 75% percentile of normal tissue samples): B (>= 20% of tumors above the cutoff, but <50%)
Target coverage: over-expression category of source gene, KICH (source genes (mRNA) [1]; Kidney chromophobe (N = 66), cutoff more than 2-fold above highest 75% percentile of normal tissue samples): B (>= 20% of tumors above the cutoff, but <50%)
Target coverage: over-expression category of source gene, LIHC (source genes (mRNA) [1]; Liver hepatocellular carcinoma (N = 374), cutoff more than 2-fold above highest 75% percentile of normal tissue samples): B (>= 20% of tumors above the cutoff, but <50%)
Target coverage: over-expression category of source gene, LGG (source genes (mRNA) [1]; Lower grade glioma (N = 534), cutoff more than 2-fold above highest 75% percentile of normal tissue samples): B (>= 20% of tumors above the cutoff, but <50%)
Target coverage: over-expression category of source gene, LUAD (source genes (mRNA) [1]; Lung adenocarcinoma (N = 517), cutoff more than 2-fold above highest 75% percentile of normal tissue samples): B (>= 20% of tumors above the cutoff, but <50%)
Target coverage: over-expression category of source gene, LUSC (source genes (mRNA) [1]; Lung squamous cell carcinoma (N = 503), cutoff more than 2-fold above highest 75% percentile of normal tissue samples): B (>= 20% of tumors above the cutoff, but <50%)
Target coverage: over-expression category of source gene, DLBC (source genes (mRNA) [1]; Lymphoid neoplasm diffuse large B-cell lymphoma (N = 48), cutoff more than 2-fold above highest 75% percentile of normal tissue samples): A (>=50% of tumors above the cutoff)
Target coverage: over-expression category of source gene, OV (source genes (mRNA) [1]; Ovarian serous cystadenocarcinoma (N = 309), cutoff more than 2-fold above highest 75% percentile of normal tissue samples): A (>=50% of tumors above the cutoff)
Target coverage: over-expression category of source gene, PAAD (source genes (mRNA) [1]; Pancreatic ductal adenocarcinoma (N = 179), cutoff more than 2-fold above highest 75% percentile of normal tissue samples): B (>= 20% of tumors above the cutoff, but <50%)
Target coverage: over-expression category of source gene, KIRP (source genes (mRNA) [1]; Papillary kidney carcinoma (N = 291), cutoff more than 2-fold above highest 75% percentile of normal tissue samples): A (>=50% of tumors above the cutoff)
Target coverage: over-expression category of source gene, PRAD (source genes (mRNA) [1]; Prostate adenocarcinoma (N = 498), cutoff more than 2-fold above highest 75% percentile of normal tissue samples): B (>= 20% of tumors above the cutoff, but <50%)
Target coverage: over-expression category of source gene, SKCM (source genes (mRNA) [1]; Skin cutaneous melanoma (N = 473), cutoff more than 2-fold above highest 75% percentile of normal tissue samples): A (>=50% of tumors above the cutoff)
Target coverage: over-expression category of source gene, STAD (source genes (mRNA) [1]; Stomach adenocarcinoma (N = 415), cutoff more than 2-fold above highest 75% percentile of normal tissue samples): A (>=50% of tumors above the cutoff)
Target coverage: over-expression category of source gene, UCEC (source genes (mRNA) [1]; Uterine corpus endometrial carcinoma (N = 546), cutoff more than 2-fold above highest 75% percentile of normal tissue samples): A (>=50% of tumors above the cutoff)
Expression score OSCAR (source genes (mRNA) [2]; esophageal cancer incl. gastric-esophageal junction (N = 11) vs panel of normal tissues): +
Expression score NHL (source genes (mRNA) [2]; non-Hodgkin lymphoma (N = 10) vs panel of normal tissues): +
Expression score UBC (source genes (mRNA) [2]; urinary bladder cancer (N = 10) vs panel of normal tissues): +
